# Assay results taken from the supplement of paper PMC10735217.
# Structures can show the parent of a compound that is named as a salt. The list shows a part of the results. This data set is noisy: repeats of one test often differ as much as different tests do.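 In a drug-repurposing library screen, luminescence reads luciferase driven by eight TEAD-binding elements, stably integrated into human kidney-derived cells. Compounds scoring over five robust Z scores above the plate mean are called hits.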
# Tested on: HEK293A TEAD-LUC reporter
# Experiment: TEAD-luciferase reporter activity (YAP activation), robust Z score vs plate; higher = stronger YAP/TEAD activation
# Conditions: 24 h
SMILES,TEAD-luciferase reporter activity (compound concentration: 200 nM),TEAD-luciferase reporter activity (compound concentration: 10 uM),TEAD-luciferase reporter activity (compound concentration: 2 uM)
N#Cc1ccccc1CN1CCCCC12Cc1ccccc1CNC2=O (configuration not stated),inactive: -2.02,inactive: 1.1,–
COC(=O)c1cccnc1N1CCN(CCCC(c2ccc(F)cc2)c2ccc(F)cc2)CC1,inactive: -0.577,inactive: -0.15,inactive: -1.11
COc1ccc(CCNCC(O)COc2cccc(C)c2)cc1OC (configuration not stated) [Bevantolol Hydrochloride],inactive: -0.968,inactive: -0.531,inactive: -0.717
COc1ccc(CCNCC(O)COc2cccc(C)c2)cc1OC (configuration not stated) [bevantolol],–,–,inactive: 0.964
C[C@]12C=CC(=O)C=C1C(Cl)=C[C@@H]1[C@@H]2[C@@H](O)C[C@@]2(C)[C@H]1CC[C@]2(O)C(=O)CO,inactive: 0.597,inactive: 1.12,inactive: 0.411
C=CC(=O)O [Acrylic Acid],inactive: -1.88,inactive: 0.241,inactive: -0.196
Oc1ccc2c(c1)OC[C@@H](c1ccccc1)[C@H]2c1ccc(OCCN2CCCC2)cc1,inactive: 0.52,inactive: 0.776,inactive: 0.639
C#C[C@]1(O)CC[C@H]2[C@@H]3[C@H](C)CC4=C(CCC(=O)C4)[C@H]3CC[C@@]21C [tibolone],–,–,inactive: -0.000493
C#C[C@]1(O)CC[C@H]2[C@@H]3[C@H](C)CC4=C(CCC(=O)C4)[C@H]3CC[C@@]21C,inactive: -0.00345,inactive: 1.78,–
CC(C)c1cc(C(=O)N2Cc3ccc(CN4CCN(C)CC4)cc3C2)c(O)cc1O,inactive: 1.85,inactive: -3.23,inactive: -1.3
O=C([C@@H]1CSC(c2cccnc2)N1)N1CCN(CCCOc2c(-c3ccccc3)oc3ccccc3c2=O)CC1 (some centres not stated),inactive: -0.443,inactive: 0.0952,inactive: 0.113
CCCCNc1nc(NC)nc(Cl)c1SC,inactive: 4.23,inactive: 1.76,inactive: -0.14
CCOCCn1nc(C(N)=O)c2nc(N(C)CC)nc(Nc3cc(C)ccn3)c21,inactive: -0.711,inactive: 0.442,inactive: -0.393
CC1(C)N=C(N)N=C(N)N1OCCCOc1cc(Cl)c(Cl)cc1Cl,inactive: -0.626,inactive: 0.0803,inactive: -0.772
CN1C(=O)CN2CCc3ccccc3C2c2cc(Cl)ccc21 (configuration not stated),inactive: -0.855,inactive: 1.93,inactive: -0.267
COCCCOc1ccnc(CSc2nc3ccccc3[nH]2)c1C [Rabeprazole-thioether],inactive: -0.95,inactive: 1.76,inactive: 2
COc1cc(OC)c(/C=C/S(=O)(=O)Cc2ccc(OC)c(NCC(=O)O)c2)c(OC)c1 [Rigosertib sodium],inactive: 0.631,inactive: 4.22,inactive: 2.52
CC1=C(C(=O)OCCN2C(=O)c3ccccc3S2(=O)=O)C(c2ccccc2[N+](=O)[O-])C(C(=O)OC(CN2CCOCC2)CN2CCOCC2)=C(C)N1 (configuration not stated),inactive: -1.74,inactive: -0.475,inactive: -0.994
CN1CCC[C@@H]1CCO[C@](C)(c1ccccc1)c1ccc(Cl)cc1 [clemastine fumarate],–,–,inactive: -2.02
CN1CCC[C@@H]1CCO[C@](C)(c1ccccc1)c1ccc(Cl)cc1 [Clemastine fumarate],inactive: 1.56,active: 5.36,–
COc1cc(-c2cnn3c(O)ncnc23)ccc1S(=O)c1ccccc1 (configuration not stated),inactive: 2.73,inactive: 0.86,active: 5.69
CCOc1nc2cccc(C(=O)OCOC(=O)OC3CCCCC3)c2n1Cc1ccc(-c2ccccc2-c2nnn[nH]2)cc1.NS(=O)(=O)c1cc2c(cc1Cl)NCNS2(=O)=O,inactive: 0.681,inactive: 0.7,inactive: 1.13
COc1cc(N)c(Cl)cc1C(=O)NCCCS(=O)(=O)Cc1ccccc1,inactive: -0.415,inactive: -1.66,inactive: 0.683
CCCCCCCCCCCCCCCC[N+](C)(C)CCN(Cc1ccc(OC)cc1)c1ncccn1,inactive: -0.124,inactive: -1.09,–
CCCCCCN1CCN(/C(=N/CC(C)C)c2ccccc2)CC1,inactive: -1.42,inactive: 0.148,inactive: 1.83
C/C(=C\c1csc(C)n1)[C@@H]1C[C@@H]2O[C@]2(C)CCC[C@H](C)[C@H](O)[C@@H](C)C(=O)C(C)(C)[C@@H](O)CC(=O)N1 [Ixabepilone],inactive: 0.125,inactive: 0.193,inactive: -1.2
CC(=O)NO,inactive: 0.07,inactive: 0.367,inactive: -0.548
O=c1c2cnc3ccccc3c2[nH]n1-c1ccccc1,inactive: -1.1,inactive: 2.76,inactive: 0.236
CCC(=O)NS(=O)(=O)c1ccc(-c2c(-c3ccccc3)noc2C)cc1 [parecoxib sodium],inactive: -1.13,inactive: -0.76,inactive: 2.76

# Complete entries, quoted from the list.
# C[C@]12C=CC(=O)C=C1C(Cl)=C[C@@H]1[C@@H]2[C@@H](O)C[C@@]2(C)[C@H]1CC[C@]2(O)C(=O)CO as listed: TEAD-luciferase reporter activity (compound concentration: 200 nM): inactive: 0.597; TEAD-luciferase reporter activity (compound concentration: 10 uM): inactive: 1.12; TEAD-luciferase reporter activity (compound concentration: 2 uM): inactive: 0.411
# CN1CCC[C@@H]1CCO[C@](C)(c1ccccc1)c1ccc(Cl)cc1 [Clemastine fumarate] as listed: TEAD-luciferase reporter activity (compound concentration: 200 nM): inactive: 1.56; TEAD-luciferase reporter activity (compound concentration: 10 uM): active: 5.36
